The values that follow come from paper PMC6180656.

Amino acid sequences for entries named in this document (tags omitted).
UniProt Q14008: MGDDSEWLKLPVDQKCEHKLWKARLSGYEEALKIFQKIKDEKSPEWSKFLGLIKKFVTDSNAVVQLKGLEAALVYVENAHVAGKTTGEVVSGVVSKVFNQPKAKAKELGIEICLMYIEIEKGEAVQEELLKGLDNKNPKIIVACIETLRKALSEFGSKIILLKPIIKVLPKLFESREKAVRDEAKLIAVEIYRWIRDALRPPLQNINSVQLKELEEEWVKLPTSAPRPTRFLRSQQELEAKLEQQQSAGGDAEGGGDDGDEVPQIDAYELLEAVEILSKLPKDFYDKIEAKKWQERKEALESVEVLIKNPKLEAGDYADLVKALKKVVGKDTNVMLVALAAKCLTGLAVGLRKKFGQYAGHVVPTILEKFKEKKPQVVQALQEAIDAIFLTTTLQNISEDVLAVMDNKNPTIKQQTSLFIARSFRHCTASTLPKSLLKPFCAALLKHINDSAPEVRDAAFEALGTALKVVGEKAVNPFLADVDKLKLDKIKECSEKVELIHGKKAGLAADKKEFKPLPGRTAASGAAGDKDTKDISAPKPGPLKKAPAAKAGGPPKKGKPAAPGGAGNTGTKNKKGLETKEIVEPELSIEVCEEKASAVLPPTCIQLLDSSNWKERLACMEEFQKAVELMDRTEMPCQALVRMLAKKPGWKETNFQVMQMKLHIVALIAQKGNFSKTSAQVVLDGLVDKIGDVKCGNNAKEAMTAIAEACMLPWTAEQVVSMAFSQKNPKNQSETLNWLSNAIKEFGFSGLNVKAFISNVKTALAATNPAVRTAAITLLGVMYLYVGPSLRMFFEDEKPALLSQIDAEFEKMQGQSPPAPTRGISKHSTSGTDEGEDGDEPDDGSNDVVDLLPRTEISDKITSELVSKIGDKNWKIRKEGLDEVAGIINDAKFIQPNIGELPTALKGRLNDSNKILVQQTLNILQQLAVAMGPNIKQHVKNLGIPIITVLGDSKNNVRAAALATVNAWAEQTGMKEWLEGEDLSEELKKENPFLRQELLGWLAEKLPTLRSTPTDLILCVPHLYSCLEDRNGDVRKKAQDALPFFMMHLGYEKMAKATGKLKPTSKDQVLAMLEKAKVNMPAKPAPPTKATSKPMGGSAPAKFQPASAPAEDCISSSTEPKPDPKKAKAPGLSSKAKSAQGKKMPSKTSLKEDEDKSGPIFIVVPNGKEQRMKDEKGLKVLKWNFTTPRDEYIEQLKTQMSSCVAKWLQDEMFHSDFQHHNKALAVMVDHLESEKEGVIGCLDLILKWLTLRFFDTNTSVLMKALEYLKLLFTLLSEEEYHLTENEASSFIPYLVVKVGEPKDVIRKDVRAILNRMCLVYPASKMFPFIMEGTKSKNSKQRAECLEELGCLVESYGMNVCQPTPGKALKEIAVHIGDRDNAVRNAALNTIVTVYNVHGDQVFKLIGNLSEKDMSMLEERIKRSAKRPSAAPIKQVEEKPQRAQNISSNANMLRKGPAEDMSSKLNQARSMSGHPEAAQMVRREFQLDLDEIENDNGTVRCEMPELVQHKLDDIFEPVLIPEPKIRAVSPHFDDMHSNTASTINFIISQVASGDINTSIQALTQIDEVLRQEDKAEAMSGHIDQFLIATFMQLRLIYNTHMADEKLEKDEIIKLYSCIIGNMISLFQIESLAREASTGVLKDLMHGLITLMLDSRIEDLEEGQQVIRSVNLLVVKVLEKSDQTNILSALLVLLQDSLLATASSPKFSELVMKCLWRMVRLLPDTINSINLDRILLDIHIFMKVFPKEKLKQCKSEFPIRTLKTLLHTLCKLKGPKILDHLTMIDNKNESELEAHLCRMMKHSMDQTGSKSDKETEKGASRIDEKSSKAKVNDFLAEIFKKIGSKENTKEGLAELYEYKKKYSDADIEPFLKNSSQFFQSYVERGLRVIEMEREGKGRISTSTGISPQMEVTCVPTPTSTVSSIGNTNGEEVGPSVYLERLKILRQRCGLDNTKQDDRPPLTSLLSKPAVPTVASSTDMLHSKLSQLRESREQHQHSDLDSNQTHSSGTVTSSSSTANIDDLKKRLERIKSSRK

Assay [1] deals with T1, Glutathione S-transferase (GST)-ARHGEF16 fusion protein (human) (UniProt Q5VV41).
T1 sequence: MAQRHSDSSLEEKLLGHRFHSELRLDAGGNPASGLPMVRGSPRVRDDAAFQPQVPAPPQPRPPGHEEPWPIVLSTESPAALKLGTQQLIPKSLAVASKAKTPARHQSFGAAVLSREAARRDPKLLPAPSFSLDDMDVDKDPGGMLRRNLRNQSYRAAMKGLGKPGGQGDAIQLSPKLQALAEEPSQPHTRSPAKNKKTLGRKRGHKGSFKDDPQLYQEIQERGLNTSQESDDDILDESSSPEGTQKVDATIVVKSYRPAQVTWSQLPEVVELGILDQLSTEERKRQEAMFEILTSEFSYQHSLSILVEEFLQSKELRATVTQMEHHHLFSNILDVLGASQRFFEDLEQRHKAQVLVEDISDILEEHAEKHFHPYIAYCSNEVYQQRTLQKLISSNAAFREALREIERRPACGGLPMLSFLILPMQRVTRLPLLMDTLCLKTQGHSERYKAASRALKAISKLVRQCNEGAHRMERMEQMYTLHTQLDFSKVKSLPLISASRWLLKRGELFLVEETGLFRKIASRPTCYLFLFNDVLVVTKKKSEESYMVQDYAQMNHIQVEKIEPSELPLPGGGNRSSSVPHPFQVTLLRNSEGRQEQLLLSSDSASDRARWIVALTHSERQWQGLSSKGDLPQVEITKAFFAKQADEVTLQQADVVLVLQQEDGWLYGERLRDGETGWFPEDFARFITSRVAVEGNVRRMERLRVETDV
The assay is described as follows: pull-down; purified GST-ARHGEF16 immobilized on Glutathione Sepharose 4B beads, incubated with lysate from U87 cells; immunoblotting; only the target purified.

A further assay has as its target T2, Flag-ARHGEF16 (human) (UniProt Q5VV41).
T2 sequence: T1 sequence
The assay is described as follows: co-IP; pre-cleared cell lysate with Flag-ARHGEF16 incubated with anti-Flag magnetic beads, 4 h at 4 °C; lysis buffer 0.5% Lubrol-PX, 50 mM KCl, 2 mM CaCl2, 20% glycerol, 50 mM Tris-HCl pH 7.4; western blotting; U87 cells. A general note: Immunoblotting shows a protein as a band on a membrane.

These are yes or no findings as the source states them, for the method shown. In cells and extracts the contact can be indirect. Some binding calls cover weakened binding; strength is not graded here. Sequences can lack the tags named with a protein.

Consider “Cytoskeleton-associated protein 5 (CKAP5) of U87 cells (from UniProt Q14008 1-2032)”, for which the binding entry (in assay [1]; with Flag-ARHGEF16 (human)) was “binds” throughout.
